Results from ChEMBL document CHEMBL4321815, “Discovery of an Extremely Potent Thiazine-Based β-Secretase Inhibitor with Reduced Cardiovascular and Liver Toxicity at a Low Projected Human Dose” (J Med Chem, 2019).
In brackets after ≈: the same amount, converted by molar mass.

Columns and labels:
in vivo = conditions: Sprague-Dawley, rat, brain, iv, 0.5 mg/kg
physchem [1] = conditions: buffer, pH 6.8
physchem [2] = conditions: buffer, pH 1.2
in vitro = conditions: pig, LLC-PK1
physchem [3] = conditions: octanol/water, pH 7.4

Compound `C[C@H]1SC(N)=N[C@](C)(c2cc(NC(=O)c3cnc(OCF)cn3)ccc2F)[C@H]1F` has a Kp at 0.5 h (in vivo) of 3.3, a solubility thermodynamic at 1 h (physchem [1]) of 28.2 µg/mL (≈ 66.3 µM) and a solubility thermodynamic at 1 h (physchem [2]) greater than 1000 µg/mL. It also gave a Papp (in vitro) of 22.7 ×10⁻⁶ cm/s and a logD at 1 h, 10000 µM (physchem [3]) of 2.4.
